What was measured:
Format in all cases: cell-based
[1] = test system: MDA-MB-231; experiment: Cell viability assay (CCK-8), MDA-MB-231; conditions: Homo sapiens, MDA-MB-231, 72 h, TNBC cell line; CCK-8, 72 h, 0.156 to 40 μM
Procedure: (§1) Four human TNBC cell lines (MDA-MB-231, MDA-MB-453, SUM-159, and BT-20), a non-TNBC breast cancer cell line (MCF-7) and a normal mammary epithelial cell line (MCF-10A) were cultured with DMEM (phenol free) supplemented with 2.5% CS-FBS and 1% L-Glu. 1.2 × 10^3 of cells were seeded into 384-well microplates and maintained for 24 h in an incubator at 37 °C in a 5% CO2, saturated humidified atmosphere. […] […] Then CCK-8 solution was added into cells and incubated for another 4 h. Absorbance was measured with a Microplate Reader at 450/600 nm. The IC50 values of the compounds on TNBC cell lines were derived using GraphPad Prism 5.0 (GraphPad Software, Inc., La Jolla, CA, USA).

[2] = test system: MCF-10A; experiment: Cell viability assay (CCK-8), MCF-10A; conditions: Homo sapiens, normal mammary epithelial cell line, CCK-8, 72 h
Procedure: (§2) Four human TNBC cell lines (MDA-MB-231, MDA-MB-453, SUM-159, and BT-20), a non-TNBC breast cancer cell line (MCF-7) and a normal mammary epithelial cell line (MCF-10A) were cultured with DMEM (phenol free) supplemented with 2.5% CS-FBS and 1% L-Glu. 1.2 × 10^3 of cells were seeded into 384-well microplates and maintained for 24 h in an incubator at 37 °C in a 5% CO2, saturated humidified atmosphere. Different compounds were added into cells with 9 concentrations from 0.156 to 40 μM for 72 h. […] Then CCK-8 solution was added into cells and incubated for another 4 h. Absorbance was measured with a Microplate Reader at 450/600 nm. The IC50 values of the compounds on TNBC cell lines were derived using GraphPad Prism 5.0 (GraphPad Software, Inc., La Jolla, CA, USA).

[3] = test system: MCF-7; experiment: Cell viability assay (CCK-8), MCF-7; conditions: Homo sapiens, MCF7, 72 h, non-TNBC breast cancer cell line; CCK-8, 72 h
Procedure: as §1

[4] = test system: BT-20; experiment: Cell viability assay (CCK-8), BT-20; conditions: Homo sapiens, TNBC cell line, CCK-8, 72 h, 0.156 to 40 μM
Procedure: as §2

[5] = test system: MDA-MB-453; experiment: Cell viability assay (CCK-8), MDA-MB-453; conditions: Homo sapiens, TNBC cell line, CCK-8, 72 h, 0.156 to 40 μM
Procedure: as §2

IC50 [1]: 2030 nM | IC50 [3]: 9.08 µM | IC50 [4]: 8.54 µM | IC50 [5]: 3.64 µM
Compound: CC/C(=C(\c1ccccc1)c1ccc(OCCN(C)C)cc1)c1ccccc1 [Tamoxifen, reference compound]
IC50 [2]: > 40 µM

Reference: paper PMC6017705, “Discovery of N-(Naphtho[1,2-b]Furan-5-Yl) Benzenesulfonamides as Novel Selective Inhibitors of Triple-Negative Breast Cancer (TNBC)” (Molecules : A Journal of Synthetic Chemistry and Natural …, 2018)
